The results in this text go back to publication PMC4585913, “Crystal structure of Streptococcus pneumoniae pneumolysin provides key insights into early steps of pore formation” (Scientific Reports, 2015).

Protein sequences, listed by entry. Tags and fused reporters are not part of them. Residues count along the entry.
UniProt P0C2J9, residues 2-470: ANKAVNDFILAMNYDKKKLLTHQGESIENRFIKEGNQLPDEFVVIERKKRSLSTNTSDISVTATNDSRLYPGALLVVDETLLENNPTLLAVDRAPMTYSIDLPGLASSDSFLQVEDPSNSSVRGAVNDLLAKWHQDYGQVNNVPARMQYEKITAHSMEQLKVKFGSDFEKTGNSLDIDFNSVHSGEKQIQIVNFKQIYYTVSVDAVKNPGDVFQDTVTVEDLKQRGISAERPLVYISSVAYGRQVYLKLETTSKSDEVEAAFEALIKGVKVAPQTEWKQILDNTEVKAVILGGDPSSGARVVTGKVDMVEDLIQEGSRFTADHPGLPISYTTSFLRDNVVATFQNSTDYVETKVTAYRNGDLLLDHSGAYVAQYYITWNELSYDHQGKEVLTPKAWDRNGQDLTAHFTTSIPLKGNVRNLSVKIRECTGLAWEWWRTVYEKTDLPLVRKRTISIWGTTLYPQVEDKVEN

Assay [1] deals with Pneumolysin (Hexahis-PLY, wild type) (Streptococcus pneumoniae) (UniProt P0C2J9). The assay is described as follows: dynamic light scattering; PLY 0.2 mg/ml in 150 mM NaCl, 10 mM Tris-HCl pH 7.5, 2 mM EDTA; incubated at 25 °C for 10 minutes; both purified.
The target is the same in assay [2]. The assay is described as follows: SEC-SAXS; PLY 80 ul at 5.35 mg/ml in 20 mM Tris-HCl pH 7.5, 150 mM NaCl, 1 mM DTT; in-line gel filtration at 298 K; only samples incubated at 25 °C; both purified. (Size exclusion chromatography separates by hydrodynamic size, large species first.)

These are yes or no findings as the source states them, for the method shown.

Take “Pneumolysin (Hexahis-PLY, wild type) (from UniProt P0C2J9 2-470)”: the binding entry was “no binding (condition: at 25 °C (0.2 mg/ml))” in assay [1] and “no binding (condition: at 25 °C (5.35 mg/ml))” in assay [2].
